According to PMC4728358:
Results are given in words; binding and its absence hold for the method and conditions named. In cells and extracts the contact can be indirect. Some binding calls cover weakened binding; strength is not graded here.

Sequences of proteins named here, by UniProt entry; tags and fusion partners are left off. Residues count along the entry.
UniProt P09803, residues 734-884: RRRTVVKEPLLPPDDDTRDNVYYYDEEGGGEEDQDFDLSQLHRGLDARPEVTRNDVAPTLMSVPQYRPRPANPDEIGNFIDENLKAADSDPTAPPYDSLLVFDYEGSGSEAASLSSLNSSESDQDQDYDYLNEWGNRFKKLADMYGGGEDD
UniProt Q02248: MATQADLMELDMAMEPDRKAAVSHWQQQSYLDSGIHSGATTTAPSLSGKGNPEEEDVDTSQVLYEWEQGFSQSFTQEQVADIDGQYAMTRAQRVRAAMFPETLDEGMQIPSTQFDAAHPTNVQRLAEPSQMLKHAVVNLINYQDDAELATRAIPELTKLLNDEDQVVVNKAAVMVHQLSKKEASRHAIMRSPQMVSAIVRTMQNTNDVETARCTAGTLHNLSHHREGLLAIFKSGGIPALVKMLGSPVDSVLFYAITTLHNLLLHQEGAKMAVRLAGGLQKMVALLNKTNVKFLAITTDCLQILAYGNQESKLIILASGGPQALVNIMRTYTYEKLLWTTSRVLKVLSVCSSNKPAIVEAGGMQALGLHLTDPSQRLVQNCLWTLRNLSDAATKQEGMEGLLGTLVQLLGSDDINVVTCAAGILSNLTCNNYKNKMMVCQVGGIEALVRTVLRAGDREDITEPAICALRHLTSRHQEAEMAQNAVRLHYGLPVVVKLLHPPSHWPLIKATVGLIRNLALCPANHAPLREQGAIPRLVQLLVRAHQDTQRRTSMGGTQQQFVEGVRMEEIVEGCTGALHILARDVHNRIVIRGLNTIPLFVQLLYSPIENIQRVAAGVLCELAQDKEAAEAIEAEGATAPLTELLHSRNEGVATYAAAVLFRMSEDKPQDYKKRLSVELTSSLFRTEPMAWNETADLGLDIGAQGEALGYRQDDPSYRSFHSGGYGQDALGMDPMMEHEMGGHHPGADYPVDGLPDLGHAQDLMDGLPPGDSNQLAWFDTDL

Target: DsRed-tagged E-cadherin cytoplasmic domain (DECT) (UniProt P09803)
Test: co-IP; FLAG-tagged DsRed constructs immunoprecipitated with anti-FLAG from stably transfected C2C12 cells; precipitates immunoblotted with anti-β-catenin or anti-plakoglobin

β-catenin (from UniProt Q02248 1-781) was tested, and the binding was “binds”.
